Data taken from article PMC12040169 (PLOS Biology, 2025).
Some of the results follow.

What follows are molecules tested on T1, CTL2-GFP (C. trachomatis L2/434/Bu, GFP-expressing). Settings: bulk GFP, single well; 28.5 h, 10 µM; inhibitor.
T1 construct: L2/434/Bu, GFP-expressing
Set-up: species or system HeLa; Intracellular C. trachomatis growth in HeLa cells, bulk GFP fluorescence relative to DMSO
For O=C(NC1Cc2ccccc2C1)c1nc2ccccc2[nH]1 [CBK200361], the “% of control remaining” value was 135.465%.
In the case of Cc1cc(C(=O)N2CCN3C(=O)CCC32C)c(C2CC2)o1 (centres unmarked) [CBK282092], the “% of control remaining” value is reported as 121.113%.
In the case of Cc1ccc(O)c(NC(=O)COc2ccc(Cl)cc2)c1 [CBK268670], the “% of control remaining” value is reported as 97.3603%.
With Cc1ccc([N+](=O)[O-])cc1NC(=O)C1Cc2ccccc2CN1C(=O)OCc1ccccc1 (centres unmarked) [CBK262463] the “% of control remaining” value was 69.7304%.
With CN(C)C(=O)N1CCN(C(=O)c2cn(Cc3cccc(S(C)(=O)=O)c3)nn2)CC1 [CBK160969T] the “% of control remaining” value was 113.346%.
With COc1cnc(-c2ccccc2OC)c(NC(C)=O)n1 [CBK145259] the “% of control remaining” value was 121.216%.
In the case of O=C(CN1CCN(c2cc(-c3ccsc3)ncn2)CC1)N1CCCC1 [CBK091074], the “% of control remaining” value is reported as 184.759%.
Cc1nc(C2CCCN(C(=O)c3ccncc3)C2)c2sccn12 (centres unmarked) [CBK285199] was tested, and the “% of control remaining” value was 106.926%.
For O=C(CN1CCC(c2nc3ccccc3[nH]2)CC1)Nc1ccc(F)cc1 [CBK287720], the “% of control remaining” value was 95.46%.
For COCCNc1nc(-c2cccc(F)c2)cn2ccnc12 [CBK066465], the “% of control remaining” value was 216.519%.
O=[N+]([O-])c1ccccc1NCCNS(=O)(=O)c1ccccc1 [CBK263552] was tested, and the “% of control remaining” value was 100.955%.
With COc1ccccc1-c1cnc2[nH]c(=O)n(CC3CCOCC3)c2n1 [CBK064286] the “% of control remaining” value was 99.5792%.
CC(=O)Nc1ccc2n(c1=O)C[C@H]1C[C@@H]2CN(C(=O)COc2ccccc2)C1 [CBK289074] was tested, and the “% of control remaining” value was 133.258%.
With COc1ccc(-c2nc3ccc(OC)cc3[nH]2)cc1 [CBK000126] the “% of control remaining” value was 132.673%.
In the case of Cn1c(N2CC[C@H](O)C2)nc2cc(C(=O)NC3CCNCC3)ccc21 [CBK306873], the “% of control remaining” value is reported as 138.684%.
With O=S(=O)(Nc1nc2c(s1)CCCC2)c1ccc(Br)cc1 [CBK097787] the “% of control remaining” value was 98.9724%.
For CN(C)CCn1ccnc1C1CCCN(C(=O)Cc2cccc(Cl)c2)C1 (centres unmarked) [CBK307272], the “% of control remaining” value was 124.937%.
In the case of COCCc1noc(CC2CCN(c3nc(C#N)c(Cl)s3)CC2)n1 [CBK304205], the “% of control remaining” value is reported as 112.666%.
In the case of Cc1cccn2cc(CC(=O)NCCNC(=O)OC(C)(C)C)nc12 [CBK306122], the “% of control remaining” value is reported as 139.364%.
In the case of CCCCOc1ccc(NC(=O)NCCC2=CCCCC2)cc1 [CBK043751], the “% of control remaining” value is reported as 51.797%.
With Cn1c(=O)c2c(nc(CN3CCC(Cc4ccccc4)CC3)n2CCN2CCOCC2)n(C)c1=O [CBK269380] the “% of control remaining” value was 91.2495%.
With COc1ccc(-c2cc(C(=O)Nc3ccc4ncccc4c3)cnc2-c2ccccc2)cc1 [CBK036623] the “% of control remaining” value was 111.462%.
In the case of CC1CCN(CCOCC(O)CNS(=O)(=O)O)CC1 (centres unmarked) [CBK261454N], the “% of control remaining” value is reported as 88.1542%.
For Cc1cccn2cc(CCNC(=O)N3CCOCC3C3CC3)nc12 (centres unmarked) [CBK304033], the “% of control remaining” value was 103.632%.
For CC(C)N(Cc1nc(-c2ccc(Cl)cc2)no1)S(=O)(=O)c1cccc([N+](=O)[O-])c1 [CBK267050], the “% of control remaining” value was 173.654%.
Cc1ccc(NS(=O)(=O)c2cc(C(=O)O)ccc2Cl)cc1S(=O)(=O)N1CCOCC1 [CBK296954] was tested, and the “% of control remaining” value was 114.219%.
In the case of O=C(c1cccc(F)c1)N1CCCC1c1n[nH]cc1-c1ccncc1 (centres unmarked) [CBK283437], the “% of control remaining” value is reported as 143.04%.
COC(=O)CCc1sc(NC(=O)CSCC(=O)O)nc1-c1ccc(OC)cc1 [CBK296116] was tested, and the “% of control remaining” value was 158.885%.
For O=S(=O)(c1ccccc1)n1cc2c3c(cccc31)CN(CCO)C2 [CBK156333T], the “% of control remaining” value was 101.012%.
For CN1CCN(C(=O)c2ccc(-c3cncc(-c4cc5ccccc5[nH]4)n3)c(F)c2)CC1 [CBK144906], the “% of control remaining” value was 125.912%.
Cc1cccc(CN(CC(C)(C)CN)C(=O)Nc2ccc(-c3ccccc3)cc2)n1 [CBK002453C] was tested, and the “% of control remaining” value was 83.1884%.
With O=C(Nc1ccc(F)c(F)c1)NC1CCC2CN(CCOc3ccccc3)CC2C1 (centres unmarked) [CBK083365T] the “% of control remaining” value was 0%.
CCc1nn(CC(=O)N2CCCC2)c(=O)c2cc3sccc3n12 [CBK284028] was tested, and the “% of control remaining” value was 166.652%.
For CCOC(=O)c1sc(NS(=O)(=O)c2cccc(Cl)c2C)nc1-c1ccccc1 [CBK000749], the “% of control remaining” value was 127.13%.
O=C(CS(=O)(=O)Cc1ccccc1)Nc1ccc(S(=O)(=O)N2CCOCC2)cc1 [CBK266658] was tested, and the “% of control remaining” value was 121.348%.
O=[N+]([O-])c1ccc(CN2CCN(c3nccnc3OCc3ccc(Cl)c(Cl)c3)CC2)cc1 [CBK083076T] was tested, and the “% of control remaining” value was 123.76%.
For O=C(CCc1ccccc1)NC(=S)Nc1ccc(-c2nc3ccccc3[nH]2)cc1 [CBK267472], the “% of control remaining” value was 122.664%.
In the case of Cc1nc(SCC(=O)O)nc(O)c1Oc1ccccc1 [CBK263621], the “% of control remaining” value is reported as 95.0973%.
With COc1ccc(C)cc1NC(=O)N1CCC2(CC1)CC(=O)c1ccc(C)cc1O2 [CBK166520] the “% of control remaining” value was 163.921%.
N#CCCCN1CCC(Oc2nccnc2OCc2cccc(OCc3ccccc3)c2)CC1 [CBK161572] was tested, and the “% of control remaining” value was 96.2425%.
CCCS(=O)(=O)N1CCCC(Cc2ccc(F)cc2F)(C(=O)OCC)C1 (centres unmarked) [CBK307221] was tested, and the “% of control remaining” value was 119.84%.
In the case of COCc1cn([C@H]2CO[C@H]3[C@@H]2OC[C@@H]3NC(=O)Nc2ccc(OC)cc2)nn1 [CBK289495], the “% of control remaining” value is reported as 115.464%.
Cc1cc(-c2cc(=O)n(Cc3ccc(F)cc3)nc2C2CC2)on1 [CBK284364] was tested, and the “% of control remaining” value was 39.4538%.
CC(C)(C)C1CCC(OC(=O)Cn2nnc3ccccc3c2=O)CC1 (centres unmarked) [CBK306408] was tested, and the “% of control remaining” value was 99.2852%.
Nc1ncn(Cc2ccccc2)c2nc(SCc3ccccc3)nc1-2 [CBK025744] was tested, and the “% of control remaining” value was 133.536%.
In the case of NC(=O)C1(N2CCCCC2)CCN(Cc2nc(O)c3ccccc3n2)CC1 [CBK265896], the “% of control remaining” value is reported as 128.686%.
For c1ccc(CC2CCN(CCc3c[nH]c4ccccc34)CC2)cc1 [CBK126385], the “% of control remaining” value was 134.024%.
In the case of Cc1c(Cc2ccccc2)sc(NC(=O)c2cccnc2)c1C(N)=O [CBK269851], the “% of control remaining” value is reported as 109.579%.
CC(C)Cn1c(=O)c(C(=O)Nc2cccc(Cl)c2)c(O)c2ccccc21 [CBK159967] was tested, and the “% of control remaining” value was 160.451%.
For CC(=O)N[C@@H](Cc1c[nH]cn1)C(=O)N1CC[C@H]2NC(=O)[C@H](Cc3ccccc3)NC(=O)C3(C/C=C/C[C@H]2C1)CCOCC3 [CBK292206], the “% of control remaining” value was 99.2457%.
With Cc1ccc(C(Cn2cncc2-c2cn(C)nc2C)N(C)C)cc1 (centres unmarked) [CBK281896] the “% of control remaining” value was 139.66%.
For Cc1ncc2c(n1)CCCC2NC(=O)c1ccccc1Cn1cncn1 (centres unmarked) [CBK306381], the “% of control remaining” value was 93.1199%.
NCCCOc1cc(N2CCCC2)ncn1 [CBK115285] was tested, and the “% of control remaining” value was 114.967%.
Cc1cc(C)cc(Oc2nccn3c(=O)[nH]nc23)c1 [CBK288451] was tested, and the “% of control remaining” value was 124.421%.
For CC1CCc2c(sc(NC(=O)c3nc4ncccn4n3)c2C(N)=O)C1 (centres unmarked) [CBK267631], the “% of control remaining” value was 123.845%.
For Cc1cc([N+](=O)[O-])nn1CCCC(=O)Nc1cccc(O)c1 [CBK268747], the “% of control remaining” value was 104.589%.
For O=C(O)c1cccc(S(=O)(=O)Nc2ccccc2C(=O)NCc2ccccc2)c1 [CBK296697], the “% of control remaining” value was 147.704%.
With Cc1cc(C[C@@H]2COC[C@H]2NCc2ccc(Cl)c(Cl)c2)on1 [CBK285400] the “% of control remaining” value was 126.394%.
In the case of CCCc1ccc(S(=O)(=O)Nc2nc(-c3cccc([N+](=O)[O-])c3)cs2)cc1 [CBK000987], the “% of control remaining” value is reported as 110.033%.
For Cc1cc(C)n2ncc(C(=O)N3CCCCC3c3ccccn3)c2n1 (centres unmarked) [CBK307257], the “% of control remaining” value was 120.152%.
CCCN1CCCC(c2ccccc2O)C1 (centres unmarked) [CBK024365G] was tested, and the “% of control remaining” value was 109.01%.
For COc1ccccc1-c1nnc2sc(-c3cnccn3)nn12 [CBK268428], the “% of control remaining” value was 125.915%.
COc1cc(CNc2cc(-c3ccc(F)c(Cl)c3)nc3ccnn23)cc(OC)c1OC [CBK037209] was tested, and the “% of control remaining” value was 95.8728%.
For CN1CCN(C(=O)CCc2nc(-c3ccc(Cl)cc3)no2)CC1 [CBK268304], the “% of control remaining” value was 116.803%.
For O=C(O)CC(Cc1ccccc1)(C(=O)O)c1ccccc1 (centres unmarked) [CBK287133], the “% of control remaining” value was 116.287%.
With O=C1CC(c2ccc(S(=O)(=O)NCc3ccccc3)cc2)CN1 (centres unmarked) [CBK270155] the “% of control remaining” value was 136.792%.
COc1ccc(-c2cc(C(F)(F)F)nc(SCC(=O)NN3CCN(C)CC3)n2)cc1 [CBK266115] was tested, and the “% of control remaining” value was 123.638%.
With COc1ccc(CN2CCN(c3ccc(F)cc3)CC2)cc1OCc1ccccc1 [CBK261894] the “% of control remaining” value was 112.694%.
With O=C1COc2ccccc2C/C=C/C[C@H]2CN(C(=O)c3noc4c3CCCC4)CC[C@H]2N1 [CBK292099] the “% of control remaining” value was 82.2855%.
For COC(=O)c1cccc2c1ncc1c(=O)nc(N)sc12 [CBK291214], the “% of control remaining” value was 113.329%.
For CC(=O)N1CCC2(CCCC[C@H]3CN(Cc4coc(C)n4)CC[C@@H]3NC(=O)CNC2=O)CC1 [CBK292165], the “% of control remaining” value was 158.981%.
Cc1nc2ccccc2c(C)c1CC(=O)N(C)Cc1cnn(C)c1 [CBK304895] was tested, and the “% of control remaining” value was 102.864%.
NS(=O)(=O)c1ccc(NC(=O)CSc2ccc3ccccc3c2)cc1 [CBK268203] was tested, and the “% of control remaining” value was 91.9643%.
For COc1ccccc1C1OC(=O)CC1C(=O)N1CCN(c2ccc(C(F)(F)F)cc2)CC1 (centres unmarked) [CBK091313], the “% of control remaining” value was 107.113%.
With Cn1c(CNc2ccc(C(=O)O)cc2)nc2ccccc21 [CBK262501] the “% of control remaining” value was 110.288%.
In the case of Cc1nn(C)cc1C(=O)N1CCC2(C/C=C/CCOc3ccccc3C(=O)NCCCNC2=O)CC1 [CBK292154], the “% of control remaining” value is reported as 81.3213%.
With O=C(c1ccccc1)c1nnsc1-c1ccccc1 [CBK008193] the “% of control remaining” value was 120.289%.
